# In PubChem BioAssay AID336 (DTP/NCI, 2004):
# The list does not hold the whole screen: its compounds were picked by chemical class. Other doses and runs of a compound may be missing. T/C: endpoint of the treated group in % of that of the vehicle group. Where survival is the endpoint, this PubChem deposit counts one and a half times the control or more as active, and values a quarter to a half above the control carry no call in these data; other NCI protocols may use other cut-offs. Some entries show no survivor count and are marked so; the dose need not have been tolerated. Schedules are NCI's codes, read here as Q, the interval in days (D) or hours (H), X, the number of doses. Counts like (3×) stand for listed records that agree. Some doses were run more than once; the results are listed from low to high.
# Test system: BDF1 mice, P388/VCR leukemia ip, median survival T/C
# Experiment: NCI In Vivo Anticancer Drug Screen. Data for tumor model P388 Leukemia resistant to Vincristine; NSC 67574 (intraperitoneal) in B6D2F1 (BDF1) mice
# Conditions: T/C endpoint: median survival time, schedule: Q01DX010 (ip), vehicle: saline, higher T/C = longer survival
# Method: The antitumor activity of compounds was measured in mice bearing transplantable tumors. Survival or tumor size were measured and the results are expressed as the measurement made in the treated group (T) divided by the measurement made in the vehicle treated control group (C). The tumor model used in this assay is P388 Leukemia resistant to Vincristine; NSC 67574 (intraperitoneal) in B6D2F1 (BDF1) mice
compound,measurement,setting,value
NC(Cc1ccccc1N(CCCl)CCCl)C(=O)O (stereo not drawn),T/C,dose: 0.25 mg/kg/injection,173 % of control [survivor count not shown]
same,T/C,dose: 0.5 mg/kg/injection,210 % of control [survivor count not shown]
same,T/C,dose: 1.0 mg/kg/injection,93 % of control [survivor count not shown]
NC(Cc1cccc(N(CCCl)CCCl)c1)C(=O)O (stereo not drawn),T/C,dose: 0.63 mg/kg/injection,211 % of control [survivor count not shown]
same,T/C,dose: 1.25 mg/kg/injection,230 % of control [survivor count not shown]
ClCCNCCCl,T/C,dose: 18.8 mg/kg/injection,127 [survivor count not shown] and 131 % of control [survivor count not shown]
same,T/C,dose: 37.5 mg/kg/injection,177 % of control [survivor count not shown] (2×)
same,T/C,dose: 75.0 mg/kg/injection,95 % of control [survivor count not shown]
CC(C(=O)O)N(CCCl)CCCl (stereo not drawn),T/C,dose: 0.25 mg/kg/injection,133 % of control [survivor count not shown]
same,T/C,dose: 0.5 mg/kg/injection,120 [survivor count not shown] and 160 % of control [survivor count not shown]
same,T/C,dose: 1.0 mg/kg/injection,130 [survivor count not shown] and 145 % of control [survivor count not shown]
same,T/C,dose: 2.0 mg/kg/injection,191 % of control [survivor count not shown] (2×)
NC1CCCCC1.NP(=O)(O)N(CCCl)CCCl,T/C,dose: 15.6 mg/kg/injection,233 [survivor count not shown] and 237 % of control [survivor count not shown]
same,T/C,dose: 31.3 mg/kg/injection,"229 [survivor count not shown], 250 [survivor count not shown], 287 % of control [survivor count not shown]"
same,T/C,dose: 62.5 mg/kg/injection,91 [survivor count not shown] and 241 % of control [survivor count not shown]
ClCCN(CCCl)Cc1nc2ccccc2[nH]1,T/C,dose: 1.25 mg/kg/injection,130 % of control [survivor count not shown]
same,T/C,dose: 2.5 mg/kg/injection,169 % of control [survivor count not shown]
same,T/C,dose: 5.0 mg/kg/injection,100 % of control [survivor count not shown]
same,T/C,dose: 10.0 mg/kg/injection,92 % of control [survivor count not shown]
O=C(O)CN(CCCl)CCCl,T/C,dose: 0.31 mg/kg/injection,141 % of control [survivor count not shown]
same,T/C,dose: 0.63 mg/kg/injection,133 [survivor count not shown] and 165 % of control [survivor count not shown]
same,T/C,dose: 1.25 mg/kg/injection,158 [survivor count not shown] and 165 % of control [survivor count not shown]
same,T/C,dose: 2.5 mg/kg/injection,134 [survivor count not shown] and 183 % of control [survivor count not shown]
